Drawing on the supplement of paper PMC10849652, this text covers log2 fold change for 14 targets.

Protein sequences, listed by entry. Tags and fused reporters are not part of them. Lines headed by an entry give the natural chain unless they say otherwise; changes in a name come on top.
UniProt P04183: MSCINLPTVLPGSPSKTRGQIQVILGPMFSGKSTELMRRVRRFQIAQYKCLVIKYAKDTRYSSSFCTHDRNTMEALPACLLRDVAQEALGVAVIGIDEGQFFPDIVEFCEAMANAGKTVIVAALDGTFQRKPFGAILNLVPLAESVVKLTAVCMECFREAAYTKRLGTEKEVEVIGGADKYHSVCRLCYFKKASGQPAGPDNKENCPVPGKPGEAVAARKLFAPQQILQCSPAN
UniProt Q9Y5L4: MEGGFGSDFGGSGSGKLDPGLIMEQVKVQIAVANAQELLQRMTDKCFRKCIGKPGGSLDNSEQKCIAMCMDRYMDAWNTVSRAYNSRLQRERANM
UniProt Q01085: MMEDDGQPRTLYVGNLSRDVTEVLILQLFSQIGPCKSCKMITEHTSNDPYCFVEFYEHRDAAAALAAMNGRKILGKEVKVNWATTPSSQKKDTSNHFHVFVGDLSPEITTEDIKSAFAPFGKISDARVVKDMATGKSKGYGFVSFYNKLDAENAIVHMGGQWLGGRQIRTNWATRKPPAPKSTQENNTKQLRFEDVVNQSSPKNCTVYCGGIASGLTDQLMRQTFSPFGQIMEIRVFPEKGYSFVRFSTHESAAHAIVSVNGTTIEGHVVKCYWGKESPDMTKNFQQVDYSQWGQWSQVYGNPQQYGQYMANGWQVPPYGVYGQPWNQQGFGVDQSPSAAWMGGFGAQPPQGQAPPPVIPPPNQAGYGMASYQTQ
UniProt Q5JTD0: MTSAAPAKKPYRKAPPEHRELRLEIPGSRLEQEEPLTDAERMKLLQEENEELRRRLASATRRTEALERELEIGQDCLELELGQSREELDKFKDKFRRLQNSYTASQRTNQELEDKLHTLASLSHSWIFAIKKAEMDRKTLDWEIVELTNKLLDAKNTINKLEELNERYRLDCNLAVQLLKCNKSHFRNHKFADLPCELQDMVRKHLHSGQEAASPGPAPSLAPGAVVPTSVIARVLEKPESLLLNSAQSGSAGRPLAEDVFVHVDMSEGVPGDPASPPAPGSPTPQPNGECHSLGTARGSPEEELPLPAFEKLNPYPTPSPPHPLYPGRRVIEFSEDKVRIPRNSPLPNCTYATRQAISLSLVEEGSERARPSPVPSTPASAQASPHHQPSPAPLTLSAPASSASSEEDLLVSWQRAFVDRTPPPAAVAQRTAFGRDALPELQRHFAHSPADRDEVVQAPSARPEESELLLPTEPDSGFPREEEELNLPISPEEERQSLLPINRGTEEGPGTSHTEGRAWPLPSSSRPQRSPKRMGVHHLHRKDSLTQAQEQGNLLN
UniProt Q66K14, whole entry, looked up: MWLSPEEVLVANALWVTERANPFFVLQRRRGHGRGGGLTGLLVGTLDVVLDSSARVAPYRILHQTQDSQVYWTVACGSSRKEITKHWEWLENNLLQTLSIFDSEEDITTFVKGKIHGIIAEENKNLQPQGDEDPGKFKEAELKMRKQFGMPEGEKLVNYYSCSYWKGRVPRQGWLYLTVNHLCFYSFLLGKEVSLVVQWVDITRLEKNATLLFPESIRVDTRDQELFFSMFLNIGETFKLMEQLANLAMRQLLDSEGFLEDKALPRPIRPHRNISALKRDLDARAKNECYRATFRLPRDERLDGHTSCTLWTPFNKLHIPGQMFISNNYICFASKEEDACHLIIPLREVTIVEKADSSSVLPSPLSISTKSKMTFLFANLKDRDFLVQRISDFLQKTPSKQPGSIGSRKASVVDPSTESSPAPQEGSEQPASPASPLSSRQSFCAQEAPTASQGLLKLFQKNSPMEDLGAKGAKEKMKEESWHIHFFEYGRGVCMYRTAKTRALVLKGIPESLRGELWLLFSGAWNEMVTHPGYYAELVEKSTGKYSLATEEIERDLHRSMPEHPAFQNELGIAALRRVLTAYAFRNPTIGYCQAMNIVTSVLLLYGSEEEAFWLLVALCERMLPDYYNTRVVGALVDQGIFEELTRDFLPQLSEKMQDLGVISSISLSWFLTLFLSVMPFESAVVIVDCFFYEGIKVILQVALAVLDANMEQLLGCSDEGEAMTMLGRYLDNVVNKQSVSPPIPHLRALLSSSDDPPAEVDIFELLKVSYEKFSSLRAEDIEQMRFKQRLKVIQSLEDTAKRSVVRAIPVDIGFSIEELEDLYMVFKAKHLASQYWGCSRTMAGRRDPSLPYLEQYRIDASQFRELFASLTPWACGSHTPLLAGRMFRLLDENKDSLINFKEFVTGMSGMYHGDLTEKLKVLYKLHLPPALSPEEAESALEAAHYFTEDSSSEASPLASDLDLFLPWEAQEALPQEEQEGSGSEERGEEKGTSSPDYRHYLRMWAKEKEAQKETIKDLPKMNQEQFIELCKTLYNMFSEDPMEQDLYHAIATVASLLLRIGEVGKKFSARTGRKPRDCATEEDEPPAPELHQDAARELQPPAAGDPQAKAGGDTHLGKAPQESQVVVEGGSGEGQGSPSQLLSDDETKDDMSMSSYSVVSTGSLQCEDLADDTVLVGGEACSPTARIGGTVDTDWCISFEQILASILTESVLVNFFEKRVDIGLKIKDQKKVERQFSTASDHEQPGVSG
UniProt Q9NUY8: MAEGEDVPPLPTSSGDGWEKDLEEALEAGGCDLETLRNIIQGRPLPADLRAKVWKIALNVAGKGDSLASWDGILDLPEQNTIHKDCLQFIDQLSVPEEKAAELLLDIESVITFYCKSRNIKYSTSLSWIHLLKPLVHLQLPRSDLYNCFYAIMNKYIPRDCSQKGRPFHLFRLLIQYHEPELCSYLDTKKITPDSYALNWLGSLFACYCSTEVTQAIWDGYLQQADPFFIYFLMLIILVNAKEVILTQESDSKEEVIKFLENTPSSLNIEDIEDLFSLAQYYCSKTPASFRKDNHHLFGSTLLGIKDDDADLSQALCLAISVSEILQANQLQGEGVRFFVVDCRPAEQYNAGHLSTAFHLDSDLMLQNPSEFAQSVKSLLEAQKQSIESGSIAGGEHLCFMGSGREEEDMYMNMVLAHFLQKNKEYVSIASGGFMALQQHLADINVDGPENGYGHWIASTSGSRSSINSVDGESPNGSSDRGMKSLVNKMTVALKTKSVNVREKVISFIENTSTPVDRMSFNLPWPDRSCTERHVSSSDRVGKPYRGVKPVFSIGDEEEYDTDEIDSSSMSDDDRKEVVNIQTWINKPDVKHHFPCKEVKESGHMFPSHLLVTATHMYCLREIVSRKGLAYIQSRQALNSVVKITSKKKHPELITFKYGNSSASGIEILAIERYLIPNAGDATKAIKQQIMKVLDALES
UniProt Q92609: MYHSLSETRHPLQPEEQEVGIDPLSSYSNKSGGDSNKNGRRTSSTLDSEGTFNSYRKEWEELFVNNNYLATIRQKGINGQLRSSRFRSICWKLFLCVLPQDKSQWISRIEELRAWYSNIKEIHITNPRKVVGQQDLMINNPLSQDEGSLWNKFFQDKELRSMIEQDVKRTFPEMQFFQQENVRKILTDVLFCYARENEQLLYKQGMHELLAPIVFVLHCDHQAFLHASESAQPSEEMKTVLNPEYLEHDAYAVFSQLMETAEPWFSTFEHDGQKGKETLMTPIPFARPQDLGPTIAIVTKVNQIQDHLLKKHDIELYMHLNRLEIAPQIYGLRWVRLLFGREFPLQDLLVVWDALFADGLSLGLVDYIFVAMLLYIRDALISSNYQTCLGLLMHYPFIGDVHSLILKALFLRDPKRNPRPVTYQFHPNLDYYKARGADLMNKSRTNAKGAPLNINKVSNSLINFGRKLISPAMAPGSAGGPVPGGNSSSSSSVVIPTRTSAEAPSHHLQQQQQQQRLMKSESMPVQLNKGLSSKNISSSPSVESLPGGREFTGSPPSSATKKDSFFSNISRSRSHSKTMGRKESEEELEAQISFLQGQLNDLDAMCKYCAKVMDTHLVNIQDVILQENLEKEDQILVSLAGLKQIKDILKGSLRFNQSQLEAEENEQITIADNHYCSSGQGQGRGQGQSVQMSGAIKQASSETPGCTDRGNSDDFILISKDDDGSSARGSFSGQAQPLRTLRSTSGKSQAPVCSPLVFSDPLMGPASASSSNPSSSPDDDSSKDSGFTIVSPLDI
UniProt Q9ULP9: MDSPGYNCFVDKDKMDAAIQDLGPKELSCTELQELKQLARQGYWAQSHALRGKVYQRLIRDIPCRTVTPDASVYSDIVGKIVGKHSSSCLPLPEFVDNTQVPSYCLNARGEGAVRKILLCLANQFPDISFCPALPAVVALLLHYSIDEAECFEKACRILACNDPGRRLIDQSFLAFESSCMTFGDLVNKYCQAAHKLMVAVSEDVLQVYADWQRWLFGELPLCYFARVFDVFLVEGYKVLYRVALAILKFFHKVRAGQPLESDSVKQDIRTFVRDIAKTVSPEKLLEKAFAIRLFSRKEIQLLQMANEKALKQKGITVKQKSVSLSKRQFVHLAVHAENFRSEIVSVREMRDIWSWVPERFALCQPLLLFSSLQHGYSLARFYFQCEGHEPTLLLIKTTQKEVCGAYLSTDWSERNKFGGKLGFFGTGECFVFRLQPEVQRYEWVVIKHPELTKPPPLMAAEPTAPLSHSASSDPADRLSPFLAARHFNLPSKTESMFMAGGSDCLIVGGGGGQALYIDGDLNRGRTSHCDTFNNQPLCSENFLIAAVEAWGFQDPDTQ
UniProt Q9UHD2: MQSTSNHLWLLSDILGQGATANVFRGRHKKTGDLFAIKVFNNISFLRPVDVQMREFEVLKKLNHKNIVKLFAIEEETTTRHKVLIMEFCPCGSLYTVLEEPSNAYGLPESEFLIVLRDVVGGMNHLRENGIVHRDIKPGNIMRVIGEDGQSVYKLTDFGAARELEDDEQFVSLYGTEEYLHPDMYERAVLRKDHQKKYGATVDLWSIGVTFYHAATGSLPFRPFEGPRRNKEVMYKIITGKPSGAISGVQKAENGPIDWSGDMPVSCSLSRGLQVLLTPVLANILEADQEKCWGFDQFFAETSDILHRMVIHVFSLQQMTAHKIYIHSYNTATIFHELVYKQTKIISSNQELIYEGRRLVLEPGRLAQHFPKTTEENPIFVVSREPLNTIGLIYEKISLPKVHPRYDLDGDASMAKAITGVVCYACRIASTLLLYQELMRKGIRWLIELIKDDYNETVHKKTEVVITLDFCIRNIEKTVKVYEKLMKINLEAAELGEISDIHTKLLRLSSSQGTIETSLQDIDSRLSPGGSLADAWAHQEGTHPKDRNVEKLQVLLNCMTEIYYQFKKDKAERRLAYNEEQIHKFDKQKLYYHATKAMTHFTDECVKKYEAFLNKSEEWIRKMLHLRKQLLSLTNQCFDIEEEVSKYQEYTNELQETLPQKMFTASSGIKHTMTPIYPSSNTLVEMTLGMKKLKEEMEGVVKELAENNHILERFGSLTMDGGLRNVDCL
UniProt Q9NZ01: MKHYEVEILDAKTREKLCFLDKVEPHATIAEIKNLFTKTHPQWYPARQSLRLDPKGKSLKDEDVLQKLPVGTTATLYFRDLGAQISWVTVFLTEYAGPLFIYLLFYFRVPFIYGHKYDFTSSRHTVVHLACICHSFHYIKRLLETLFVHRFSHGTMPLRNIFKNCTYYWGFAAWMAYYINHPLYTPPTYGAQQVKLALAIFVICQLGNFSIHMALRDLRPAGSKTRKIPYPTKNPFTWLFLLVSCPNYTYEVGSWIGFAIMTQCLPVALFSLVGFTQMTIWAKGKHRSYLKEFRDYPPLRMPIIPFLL
UniProt O60907: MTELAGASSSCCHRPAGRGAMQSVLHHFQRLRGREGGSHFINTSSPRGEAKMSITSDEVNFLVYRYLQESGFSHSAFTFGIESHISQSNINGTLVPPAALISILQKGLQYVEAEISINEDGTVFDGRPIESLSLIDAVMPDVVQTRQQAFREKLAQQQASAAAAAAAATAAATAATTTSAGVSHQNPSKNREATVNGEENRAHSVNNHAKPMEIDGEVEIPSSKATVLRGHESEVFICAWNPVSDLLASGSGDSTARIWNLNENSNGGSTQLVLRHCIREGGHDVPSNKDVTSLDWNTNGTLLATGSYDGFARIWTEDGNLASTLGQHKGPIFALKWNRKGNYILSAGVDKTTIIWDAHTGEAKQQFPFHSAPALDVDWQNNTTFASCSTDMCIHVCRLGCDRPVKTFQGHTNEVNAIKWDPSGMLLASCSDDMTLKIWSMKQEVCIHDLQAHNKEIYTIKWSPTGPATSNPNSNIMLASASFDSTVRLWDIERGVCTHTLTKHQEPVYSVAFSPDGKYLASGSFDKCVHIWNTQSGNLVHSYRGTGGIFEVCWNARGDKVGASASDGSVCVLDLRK
UniProt Q96BZ9: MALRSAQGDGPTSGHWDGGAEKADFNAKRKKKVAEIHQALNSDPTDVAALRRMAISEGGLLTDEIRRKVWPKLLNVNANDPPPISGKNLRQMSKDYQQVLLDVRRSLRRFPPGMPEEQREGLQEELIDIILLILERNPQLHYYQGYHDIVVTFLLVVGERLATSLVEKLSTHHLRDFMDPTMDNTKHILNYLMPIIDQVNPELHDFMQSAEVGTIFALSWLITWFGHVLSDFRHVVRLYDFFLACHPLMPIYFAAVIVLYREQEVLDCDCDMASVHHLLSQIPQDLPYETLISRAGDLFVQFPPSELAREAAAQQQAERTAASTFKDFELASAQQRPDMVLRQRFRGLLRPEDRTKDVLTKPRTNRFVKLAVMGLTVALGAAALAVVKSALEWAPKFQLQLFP

This is one part of the list.

Holding throughout (assay): log2 fold change, soluble protein after heating vs DMSO (PISA); higher = thermal stabilisation; K562 cells, 10 uM, 30 min; active = over 0.2 and 3.5 SD of the protein, either way, in both replicates (recomputed)
Compound in experiment [1]: NC(=O)Nc1cc(-c2cccc(F)c2)sc1C(=O)N[C@H]1CCCNC1
The essentials:
(§1)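 K562 cells at 2×10^6 cells/mL were treated with 10 μM compound for 30 min. Aliquots were heated for 3 min across 48°C-58°C, pooled, and extracted in PBS with 0.5% NP-40 at 4°C; soluble protein was the supernatant after 21,000xg for 90 min. Soluble protein was quantified by TMTpro 16plex LC-MS/MS with channel sums equalised, and reported as log2 fold change in thermal stability against DMSO controls, with values from duplicates.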

Compound in experiment [2]: NC(=O)c1cnc(N[C@@H]2CCCC[C@@H]2N)nc1Nc1cccc(-n2nccn2)c1
The procedure, abridged:
as §1

Compound in experiment [3]: NC1(c2ccc(-c3nc4ccn5c(=O)[nH]nc5c4cc3-c3ccccc3)cc2)CCC1
The procedure, abridged: as §1

Compound in experiment [4]: NCC(=O)Nc1ccc(-n2nc(C(F)(F)F)cc2-c2ccc3c(ccc4ccccc43)c2)cc1
The procedure, abridged:
as §1

Compound in a further experiment: Nc1ccccc1NC(=O)c1ccc(CNC(=O)OCc2cccnc2)cc1 [entinostat]
The procedure, abridged:
as §1

Compound in a further experiment: O=C(CCCCCCC(=O)Nc1ccccc1)NO [vorinostat]
The essentials: as §1

Compound in another experiment: O=C(CCCCCCNC(=O)c1cnc(N(c2ccccc2)c2ccccc2Cl)nc1)NO [citarinostat]
The procedure, abridged:
as §1

Compound in a further experiment: O=C(O)c1ccc2c(c1)nc(Nc1cccc(Cl)c1)c1ccncc12 [silmitasertib]
The procedure, abridged: as §1

Compound in experiment [5]: O=C1NC(=O)C(c2cnc3ccccn23)=C1c1cn2c3c(cc(F)cc13)CN(C(=O)N1CCCCC1)CC2
The procedure, abridged:
as §1

Compound in experiment [6]: c1cc(OCCN2CCCCC2)cc(-c2n[nH]c3ccc(-c4nnc[nH]4)cc23)c1
The essentials: as §1

Compound in a further experiment: c1cn2cc(-c3ccc4cn[nH]c4c3)nc(Nc3ccc(N4CCOCC4)cc3)c2n1 [entospletinib]
The essentials:
as §1

For TGFBR1 isoform 2 (UniProt P36897), the log2 fold change in experiment [1] was inactive: 0.029; in experiment [2], inactive: 0.072; in [3], inactive: -0.041; in experiment [4], inactive: 0.002; with entinostat, inactive: 0.093; in the experiment with vorinostat, inactive: -0.083. For the same target, the log2 fold change with citarinostat was inactive: 0.017; with silmitasertib, inactive: 0.073; in experiment [5], inactive: -0.052; in [6], inactive: -0.054.

With TK1 (UniProt P04183), the log2 fold change in [1] was inactive: 0.021; in experiment [2] it was inactive: 0.018; in experiment [3], inactive: 0.02; in [4], inactive: 0.031; with entinostat, inactive: -0.068; with vorinostat it was inactive: -0.007. Also, the log2 fold change with citarinostat was inactive: 0.016; with silmitasertib, inactive: 0.013; in experiment [5], inactive: -0.025; in experiment [6], inactive: -0.027.

As to TIMM13 (UniProt Q9Y5L4), the log2 fold change in experiment [1] was inactive: 0.114; in experiment [2], inactive: 0.031; in experiment [3], inactive: -0.027; in experiment [4], inactive: 0.012; in the experiment with entinostat it was inactive: 0.01; with vorinostat, inactive: 0.031. The log2 fold change in the experiment with citarinostat was inactive: 0.117; with silmitasertib, inactive: -0.016; in experiment [5], inactive: 0.152; in [6], inactive: 0.107.

Regarding TIAL1 isoform 2 (UniProt Q01085), the log2 fold change in [1] is inactive: -0.014; in [2], inactive: -0.026; in experiment [3] it was inactive: -0.05; in experiment [4], inactive: -0.048; in the experiment with entinostat it was inactive: -0.005; with vorinostat, inactive: 0.025. Also, the log2 fold change was inactive: -0.002 with citarinostat, inactive: -0.003 with silmitasertib, inactive: 0.003 in experiment [5] and inactive: -0.036 in experiment [6].

As for TJAP1 (UniProt Q5JTD0), the log2 fold change in [1] was inactive: -0.047; in experiment [2] it was inactive: 0.058; in experiment [3] it was inactive: 0.004; in [4], inactive: -0.037; with entinostat it was inactive: -0.038; in the experiment with vorinostat it was inactive: -0.095. Besides, the log2 fold change with citarinostat was inactive: -0.028; with silmitasertib, inactive: -0.007; in [5] it was inactive: 0.047; in experiment [6], inactive: -0.082; with entospletinib it was inactive: 0.059.

Consider TBC1D9B (UniProt Q66K14), for which the log2 fold change in experiment [1] was inactive: -0.194; in experiment [2], inactive: -0.095; in [3] it was inactive: -0.07; in [4], inactive: -0.012; with entinostat, inactive: -0.085; with vorinostat it was inactive: -0.034. Further, the log2 fold change in the experiment with citarinostat is inactive: 0.173; with silmitasertib it was inactive: 0.021; in experiment [5], inactive: -0.176; in experiment [6], inactive: -0.13.

For TBC1D23 (UniProt Q9NUY8), the log2 fold change in experiment [1] was inactive: 0.015; in experiment [2], inactive: -0.135; in experiment [3], active: -0.33; in experiment [4], inactive: -0.009; in the experiment with entinostat, inactive: 0.06; in the experiment with vorinostat it was inactive: 0.115. Moreover, the log2 fold change with citarinostat is inactive: 0.045; with silmitasertib, inactive: 0.02; in [5], inactive: -0.073; in [6] it was inactive: -0.047.

As for TBC1D5 isoform 2 (UniProt Q92609), the log2 fold change in [1] was inactive: -0.006; in experiment [2] it was inactive: -0.103; in experiment [3], inactive: -0.233; in experiment [4], inactive: -0.058; with entinostat it was inactive: 0.029; in the experiment with vorinostat, inactive: 0.086. The log2 fold change with citarinostat was inactive: 0.111; in the experiment with silmitasertib it was inactive: 0.031; in [5] it was inactive: -0.076; in experiment [6], inactive: -0.094.

Consider TBC1D24 (UniProt Q9ULP9), for which the log2 fold change in [1] was inactive: 0.047; in experiment [2], inactive: -0.038; in experiment [3], inactive: -0.091; in experiment [4], inactive: -0.002; with entinostat it was inactive: 0.029; with vorinostat, inactive: 0.291. The log2 fold change with citarinostat is inactive: 0.016; with silmitasertib it was inactive: -0.135; in experiment [5] it was inactive: -0.082; in [6], inactive: -0.096.

In the case of THADA (UniProt Q6YHU6), the log2 fold change was inactive: 0.004 in experiment [1]; inactive: -0.085 in [2]; inactive: -0.147 in experiment [3]; inactive: -0.082 in experiment [4]; inactive: 0.014 in the experiment with entinostat; inactive: -0.001 with vorinostat. The log2 fold change in the experiment with citarinostat was inactive: 0.121; in the experiment with silmitasertib it was inactive: -0.061; in experiment [5] it was inactive: -0.025; in [6], inactive: -0.013.

For TBK1 (UniProt Q9UHD2), the log2 fold change in experiment [1] was inactive: 0.196; in experiment [2], inactive: 0; in experiment [3] it was inactive: -0.086; in [4], inactive: -0.118; with entinostat, inactive: 0.055; with vorinostat, inactive: -0.025. Moreover, the log2 fold change with citarinostat is inactive: 0.064; with silmitasertib, inactive: 0.057; in experiment [5], inactive: -0.014; in [6] it was inactive: -0.029.

In the case of TECR (UniProt Q9NZ01), the log2 fold change is inactive: 0 in [1]; inactive: -0.071 in [2]; inactive: -0.087 in experiment [3]; inactive: -0.048 in experiment [4]; inactive: 0.042 in the experiment with entinostat; inactive: 0.064 with vorinostat. Besides, the log2 fold change is inactive: 0.07 in the experiment with citarinostat, inactive: 0.025 with silmitasertib, inactive: -0.07 in experiment [5] and inactive: -0.056 in [6].

As for TBL1X (UniProt O60907), the log2 fold change in [1] was inactive: 0.018; in experiment [2], inactive: -0.017; in experiment [3] it was inactive: -0.069; in [4], inactive: -0.025; with entinostat, inactive: -0.013; in the experiment with vorinostat, inactive: 0.065. Moreover, the log2 fold change was inactive: 0.027 in the experiment with citarinostat; inactive: -0.031 with silmitasertib; inactive: -0.062 in experiment [5]; inactive: -0.04 in experiment [6]; inactive: -0.019 with entospletinib.

For the target TBC1D20 isoform 3 (UniProt Q96BZ9), the log2 fold change is inactive: -0.062 in experiment [1]; inactive: 0.052 in [2]; inactive: 0.027 in [3]; inactive: -0.08 in experiment [4]; inactive: 0.026 with entinostat; inactive: 0.033 with vorinostat. Moreover, the log2 fold change with citarinostat was inactive: 0.293; with silmitasertib, inactive: 0.03; in experiment [5], inactive: -0.007; in experiment [6], inactive: 0.03.
